In article PMC6515683 one finds binding data, which are given here for seven molecules.

The chains behind the UniProt entries cited, without tags or fusion partners. Where a name states a change or a piece, a line headed by the entry shows the natural chain unless it says otherwise.
UniProt P03372: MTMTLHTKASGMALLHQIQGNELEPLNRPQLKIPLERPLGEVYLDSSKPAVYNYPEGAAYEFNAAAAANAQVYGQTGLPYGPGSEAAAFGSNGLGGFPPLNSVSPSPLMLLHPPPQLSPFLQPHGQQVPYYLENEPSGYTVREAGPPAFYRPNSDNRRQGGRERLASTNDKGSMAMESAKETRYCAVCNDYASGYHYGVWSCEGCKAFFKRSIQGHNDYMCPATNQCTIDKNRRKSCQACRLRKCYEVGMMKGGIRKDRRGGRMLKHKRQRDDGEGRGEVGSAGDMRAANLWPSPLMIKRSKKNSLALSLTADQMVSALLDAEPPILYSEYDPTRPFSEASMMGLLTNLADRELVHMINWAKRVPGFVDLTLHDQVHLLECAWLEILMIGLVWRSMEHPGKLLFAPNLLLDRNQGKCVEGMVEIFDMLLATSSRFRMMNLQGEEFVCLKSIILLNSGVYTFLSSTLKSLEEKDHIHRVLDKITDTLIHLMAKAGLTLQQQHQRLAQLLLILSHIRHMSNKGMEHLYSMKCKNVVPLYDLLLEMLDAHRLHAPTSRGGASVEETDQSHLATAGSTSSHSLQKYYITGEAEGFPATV
UniProt P23771: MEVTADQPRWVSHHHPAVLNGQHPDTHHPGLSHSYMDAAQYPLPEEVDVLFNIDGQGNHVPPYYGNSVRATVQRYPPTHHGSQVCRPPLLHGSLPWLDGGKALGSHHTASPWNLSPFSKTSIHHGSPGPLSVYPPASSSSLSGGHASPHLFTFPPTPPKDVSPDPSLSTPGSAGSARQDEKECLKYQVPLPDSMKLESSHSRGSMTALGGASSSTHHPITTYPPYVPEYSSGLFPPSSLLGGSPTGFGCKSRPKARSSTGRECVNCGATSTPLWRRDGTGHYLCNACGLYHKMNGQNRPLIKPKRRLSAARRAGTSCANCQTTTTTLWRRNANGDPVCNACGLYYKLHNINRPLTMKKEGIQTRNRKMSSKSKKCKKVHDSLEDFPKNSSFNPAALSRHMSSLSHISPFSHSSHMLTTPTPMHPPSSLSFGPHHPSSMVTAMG
UniProt Q13547: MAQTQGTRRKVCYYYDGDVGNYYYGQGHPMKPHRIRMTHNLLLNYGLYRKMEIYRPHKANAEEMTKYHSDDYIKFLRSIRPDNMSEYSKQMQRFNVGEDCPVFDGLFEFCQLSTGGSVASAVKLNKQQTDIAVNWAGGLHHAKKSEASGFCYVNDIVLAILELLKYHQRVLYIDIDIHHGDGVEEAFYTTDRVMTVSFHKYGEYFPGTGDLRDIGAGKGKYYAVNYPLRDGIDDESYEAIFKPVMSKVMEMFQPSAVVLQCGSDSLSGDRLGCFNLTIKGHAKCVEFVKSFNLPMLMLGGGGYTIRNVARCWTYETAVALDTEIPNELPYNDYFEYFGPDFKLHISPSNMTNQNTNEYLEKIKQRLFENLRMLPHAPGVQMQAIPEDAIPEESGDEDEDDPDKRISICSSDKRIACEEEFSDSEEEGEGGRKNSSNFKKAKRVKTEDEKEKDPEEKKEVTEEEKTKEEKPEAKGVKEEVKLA
UniProt P10276: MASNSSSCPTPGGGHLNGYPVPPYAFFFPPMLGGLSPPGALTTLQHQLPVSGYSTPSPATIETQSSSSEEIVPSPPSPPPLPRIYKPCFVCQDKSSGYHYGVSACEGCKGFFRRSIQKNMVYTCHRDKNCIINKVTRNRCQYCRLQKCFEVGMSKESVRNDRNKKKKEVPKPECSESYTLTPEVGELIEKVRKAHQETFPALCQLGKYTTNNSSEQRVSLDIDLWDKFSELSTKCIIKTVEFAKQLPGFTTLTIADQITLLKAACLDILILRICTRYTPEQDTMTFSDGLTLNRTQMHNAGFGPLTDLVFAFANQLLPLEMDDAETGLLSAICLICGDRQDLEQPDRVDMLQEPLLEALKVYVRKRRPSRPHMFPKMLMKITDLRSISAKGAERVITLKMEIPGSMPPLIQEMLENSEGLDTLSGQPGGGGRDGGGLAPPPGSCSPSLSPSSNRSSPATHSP

The target in assay [1] is estrogen receptor-alpha (human (endogenous in MCF7 and T47D)) (UniProt P03372). The assay is described as follows: affinity purification with mass spectrometry; qPLEX-RIME (RIME with TMT isobaric labels) of ER from formaldehyde-fixed MCF7 cells treated with estradiol for 45 and 90 min; ER is the bait.
The target in assay [2] is T1, GRHL2 (human (endogenous in MCF7 and T47D)) (UniProt Q6ISB3).
T1 sequence: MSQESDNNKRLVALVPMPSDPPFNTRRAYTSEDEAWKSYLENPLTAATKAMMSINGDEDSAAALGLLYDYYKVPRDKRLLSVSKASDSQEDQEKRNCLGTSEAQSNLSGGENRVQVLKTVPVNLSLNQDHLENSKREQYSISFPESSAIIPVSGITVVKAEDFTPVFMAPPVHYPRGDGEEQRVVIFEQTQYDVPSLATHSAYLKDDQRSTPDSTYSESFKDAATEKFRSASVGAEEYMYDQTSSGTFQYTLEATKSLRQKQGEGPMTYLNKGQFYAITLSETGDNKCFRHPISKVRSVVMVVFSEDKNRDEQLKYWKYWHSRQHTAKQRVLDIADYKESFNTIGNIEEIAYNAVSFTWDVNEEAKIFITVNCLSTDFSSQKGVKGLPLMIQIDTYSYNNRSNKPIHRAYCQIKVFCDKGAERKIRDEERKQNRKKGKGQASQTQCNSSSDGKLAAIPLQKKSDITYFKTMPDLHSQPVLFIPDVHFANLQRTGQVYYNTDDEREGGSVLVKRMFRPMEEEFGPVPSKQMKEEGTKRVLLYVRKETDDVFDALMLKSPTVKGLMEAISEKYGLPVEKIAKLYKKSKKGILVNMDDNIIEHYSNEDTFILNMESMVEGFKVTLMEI
The assay is described as follows: affinity purification with mass spectrometry; qPLEX-RIME (RIME with TMT isobaric labels) of GRHL2 in estrogen-free and estrogenic conditions; GRHL2 is the bait; cell line not stated.

No constants are given. Whether binding was seen depends on the method and setting. In cells and extracts the contact can be indirect. A yes stands for co-enrichment or nearness to the bait. Other partners may have been found.

GATA3 (from UniProt P23771 1-443): in assay [1], the binding result was “binds”.
Consider HDAC1 (from UniProt Q13547 1-482), for which the binding entry in assay [2] is “binds”.
In the case of PRMT, the binding entry in assay [2] is listed as “binds”.
Regarding RARA (from UniProt P10276 1-462), in assay [1], the binding result was “binds”.
With “estrogen receptor-alpha (from UniProt P03372 1-595)”, the binding result in assay [2] was “binds”.

B1: TIF1A (protein, UniProt O15164 1-1050)
chain: MEVAVEKAVAAAAAASAAASGGPSAAPSGENEAESRQGPDSERGGEAARLNLLDTCAVCHQNIQSRAPKLLPCLHSFCQRCLPAPQRYLMLPAPMLGSAETPPPVPAPGSPVSGSSPFATQVGVIRCPVCSQECAERHIIDNFFVKDTTEVPSSTVEKSNQVCTSCEDNAEANGFCVECVEWLCKTCIRAHQRVKFTKDHTVRQKEEVSPEAVGVTSQRPVFCPFHKKEQLKLYCETCDKLTCRDCQLLEHKEHRYQFIEEAFQNQKVIIDTLITKLMEKTKYIKFTGNQIQNRIIEVNQNQKQVEQDIKVAIFTLMVEINKKGKALLHQLESLAKDHRMKLMQQQQEVAGLSKQLEHVMHFSKWAVSSGSSTALLYSKRLITYRLRHLLRARCDASPVTNNTIQFHCDPSFWAQNIINLGSLVIEDKESQPQMPKQNPVVEQNSQPPSGLSSNQLSKFPTQISLAQLRLQHMQQQVMAQRQQVQRRPAPVGLPNPRMQGPIQQPSISHQQPPPRLINFQNHSPKPNGPVLPPHPQQLRYPPNQNIPRQAIKPNPLQMAFLAQQAIKQWQISSGQGTPSTTNSTSSTPSSPTITSAAGYDGKAFGSPMIDLSSPVGGSYNLPSLPDIDCSSTIMLDNIVRKDTNIDHGQPRPPSNRTVQSPNSSVPSPGLAGPVTMTSVHPPIRSPSASSVGSRGSSGSSSKPAGADSTHKVPVVMLEPIRIKQENSGPPENYDFPVVIVKQESDEESRPQNANYPRSILTSLLLNSSQSSTSEETVLRSDAPDSTGDQPGLHQDNSSNGKSEWLDPSQKSPLHVGETRKEDDPNEDWCAVCQNGGELLCCEKCPKVFHLSCHVPTLTNFPSGEWICTFCRDLSKPEVEYDCDAPSHNSEKKKTEGLVKLTPIDKRKCERLLLFLYCHEMSLAFQDPVPLTVPDYYKIIKNPMDLSTIKKRLQEDYSMYSKPEDFVADFRLIFQNCAEFNEPDSEVANAGIKLENYFEELLKNLYPEKRFPKPEFRNESEDNKFSDDSDDDFVQPRKKRLKSIEERQLLK
Consider B1, for which the binding result in assay [2] is recorded as “binds”.

B2: GRHL2 (protein, UniProt Q6ISB3 1-625)
chain: T1 sequence
For B2, in assay [1], the binding entry is “binds”.
